Values joined by “and” are separate entries in the source; they are usually repeats but may differ in a detail not shown here. Equal entries are not always repeated. Among all 260,000 compounds or so, about 1,500 (0.58%) were called active. Inconclusive results, whose numbers are uncertain, are shown with a selection of clear calls.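 The calls were made as follows: active = inhibition above a set limit at one or more doses, reproduced on every date tested; inconclusive = results disagree between test dates, or hit never tested in dose response; inactive = the rest.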
Biological target: Virion infectivity factor (Human immunodeficiency virus type 1 group M subtype B (isolate BH10)) + Virion infectivity factor (Human immunodeficiency virus type 1 group M subtype B (isolate BRU/LAI)) + Virion infectivity factor (Human immunodeficiency virus type 1 group M subtype B (isolate PCV12)) + Virion infectivity factor (Human immunodeficiency virus type 1 group M subtype B (isolate HXB2)) + DNA dC->dU-editing enzyme APOBEC-3G (Homo sapiens) (UniProt P69720+P69721+P69722+P69723+Q9HC16)
Assay: inhibitors of Vif binding to APOBEC3G peptide, primary screen, biochemical, TR-FRET, GST-Vif 1-94, biotin-A3G peptide, dose response retest (AID 1117319);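 also: Vif residues 1-94 fused to GST binding biotinylated APOBEC3G peptide 110-148; 0% = full assay without inhibitor and 100% = GST in place of GST-Vif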
Settings: stronger effect = higher value

Chains of the proteins cited; added tags and fusions are not shown. Lines headed by an entry give the natural chain unless they say otherwise; changes in a name come on top.
UniProt P69720: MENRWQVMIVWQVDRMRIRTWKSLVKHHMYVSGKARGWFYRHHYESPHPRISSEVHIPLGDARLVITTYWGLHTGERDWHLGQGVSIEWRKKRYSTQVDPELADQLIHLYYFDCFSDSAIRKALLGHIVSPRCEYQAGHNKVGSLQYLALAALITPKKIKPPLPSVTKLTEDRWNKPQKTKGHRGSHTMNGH
UniProt P69721: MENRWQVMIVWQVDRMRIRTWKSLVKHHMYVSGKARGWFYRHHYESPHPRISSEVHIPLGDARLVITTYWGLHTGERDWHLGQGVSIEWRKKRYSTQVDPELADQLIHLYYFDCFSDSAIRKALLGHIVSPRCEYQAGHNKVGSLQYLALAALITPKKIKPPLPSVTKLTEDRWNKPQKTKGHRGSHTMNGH
UniProt P69722: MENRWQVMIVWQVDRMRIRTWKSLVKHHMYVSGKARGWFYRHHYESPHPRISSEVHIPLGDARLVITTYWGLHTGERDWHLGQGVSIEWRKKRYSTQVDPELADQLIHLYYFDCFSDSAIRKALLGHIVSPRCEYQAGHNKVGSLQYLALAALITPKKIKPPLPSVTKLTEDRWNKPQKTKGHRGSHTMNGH
UniProt P69723: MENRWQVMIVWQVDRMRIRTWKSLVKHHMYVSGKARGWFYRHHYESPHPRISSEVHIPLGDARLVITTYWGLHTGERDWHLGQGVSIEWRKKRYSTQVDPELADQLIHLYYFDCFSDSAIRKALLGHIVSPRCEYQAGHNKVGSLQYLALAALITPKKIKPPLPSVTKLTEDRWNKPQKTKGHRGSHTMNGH
UniProt Q9HC16: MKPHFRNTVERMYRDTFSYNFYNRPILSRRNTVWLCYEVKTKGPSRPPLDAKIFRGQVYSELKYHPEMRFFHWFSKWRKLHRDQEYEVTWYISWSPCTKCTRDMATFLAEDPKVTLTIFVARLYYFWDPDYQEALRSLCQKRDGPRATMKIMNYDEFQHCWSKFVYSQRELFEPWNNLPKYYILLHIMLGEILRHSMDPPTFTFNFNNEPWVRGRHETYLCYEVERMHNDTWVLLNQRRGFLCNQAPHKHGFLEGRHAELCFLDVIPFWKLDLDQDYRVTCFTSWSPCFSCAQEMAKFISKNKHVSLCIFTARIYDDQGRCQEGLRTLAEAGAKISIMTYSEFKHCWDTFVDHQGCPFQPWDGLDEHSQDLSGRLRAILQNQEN

Structure (SMILES) | inhibition
Cc1ccc(C)c2c3c([nH]c12)-c1nonc1CC3 | inconclusive: 51.6%
CCOc1ccc(CN(C(=O)c2oc3ccccc3c2C)C2CCS(=O)(=O)C2)cc1 (stereo unspecified) | inconclusive: 34.1%
CCC(C)n1c(-c2ccco2)nc2nc3ccccc3nc21 (stereo unspecified) | inconclusive: 42.9%
CC(C)CCNC(=O)c1cnn2c(C(F)(F)F)cc(-c3ccco3)nc12 | inconclusive: 55%
O/N=C1\CC(O)Cc2nonc21 (stereo unspecified) | inactive: -4.67%
CCC1(C)Cc2c(C#N)c(N)sc(=S)c2CO1 (stereo unspecified) | inconclusive: 40.8%
COC(=O)CCC(=O)OC1(C)C(=O)C=C2C=C(C3CC3)N(C3CCCCC3)C=C2C1=O (stereo unspecified) | inactive: 17.8%
Cc1ccc(-n2nc(C)c3c2OC(N)=C(C#N)C3c2ccco2)cc1 (stereo unspecified) | inconclusive: 42.9%
CCn1nnc2cc(C(=O)O)ccc21 | inconclusive: 47.7%
CCCSC1=C(C#N)C(c2cccs2)C(C(=O)Nc2ccccc2)=C(C)N1 (stereo unspecified) | inconclusive: 34.6%
Cc1ccc(OCC(=O)c2c(N)n(C)c(=O)n(C)c2=O)c([N+](=O)[O-])n1 | inconclusive: 54.4%
CC1CCCCN1C(=O)c1ccc(NC(=O)c2ccccc2Cl)cc1 (stereo unspecified) | inconclusive: 42.8%
O=C(CSc1ccc(-c2ccccn2)nn1)c1ccccc1 | inconclusive: 33.7%
Cc1cccc2c1NC(=O)C2=O | inactive: 32.4%
CCOC(=O)c1cc(=O)n2nc(-c3ccc(C)cc3)nc2s1 | inconclusive: 44.2%
O=C(Cn1ccc2ccccc2c1=O)NCCC(=O)N1CCN(C2CCCCC2)CC1 | inconclusive: 34.1%
CC(/C=C/c1ccco1)=N\NC(=O)c1cc(Cl)ccc1O | inconclusive: 33.6%
Cc1ccc(CN2CCN(Cc3cnc(N(C)C)s3)CC2CCO)o1 (stereo unspecified) | inconclusive: 44.6%
C1=CC2c3ccccc3NC(c3ccncc3)C2C1 (stereo unspecified) | inconclusive: 56.9%
Cc1ccc(S(=O)(=O)N(C)c2ccc(OCC(=O)Nc3cccc(-n4cnnn4)c3C)cc2)cc1 | inconclusive: 38.7%
COC(=O)c1nn(-c2ccc(Oc3ccccc3)cc2)c(=O)cc1O | inactive: 2.63%
CCOC(=O)c1[nH]c2ccccc2c1NC(=O)NC1CCCCC1 | inconclusive: 52.6%
CCN(CC(=O)NCc1ccccn1)S(=O)(=O)c1ccc(Cl)cc1 | inconclusive: 45.6%

Structure (SMILES) | inhibition
CCCC(=O)Nc1nnc(CC(=O)N2CCCC2)s1 | inconclusive: 41.5%
CCCCCC(=O)NC(=S)Nc1ccccc1C(=O)OC | inconclusive: 49.2%
COc1cccc(-c2cc(C(=O)NCCCN3CCOCC3)no2)c1 | inconclusive: 54.8%
O=C(C1CC1)N1CCCN(C(=O)C2CC2)CC1 | inconclusive: 47.8%
Cc1cccc(N(C(=O)Nc2ccccc2)C2=NCC(C)S2)c1 (stereo unspecified) | inconclusive: 55.7%
COc1ccc(-n2nc3cc(C)c(N)c(Br)c3n2)cc1 | inconclusive: 34%
Cc1ccc(C)n1-c1sc2c(c1C(=O)O)CCCC2 | inconclusive: 53.6%
COc1ccc2[nH]c(=O)c(C(c3nnnn3C3CCCC3)N(C)C3CCCCC3)cc2c1 (stereo unspecified) | inconclusive: 40.6%
Cc1ccc(CNC(=O)CCNS(=O)(=O)c2ccc3c(c2)c(=O)n(C)c(=O)n3C)cc1 | inconclusive: 40.1%
Cc1ccc(C2CC(=O)N3CN(c4ccc(Br)cc4)CSC3=C2C#N)o1 (stereo unspecified) | inconclusive: 49% and inconclusive: 40.7%
NC(=O)CSc1nnc(-c2cccs2)n1Cc1ccco1 | inconclusive: 60.8%
COc1cc(/C=N/O)cc(Br)c1OC | inconclusive: 38.5%
O=C(O)Cc1nc2nc3c(c(=O)n2[nH]1)CCCC3 | inconclusive: 34.3%
Fc1c(F)c(C(F)(F)F)c(F)c(F)c1N/N=C\c1cccs1 | inconclusive: 52.7%
CC(O)C(O)C(O)C(O)/C=N/NC(=O)c1ccccc1 (stereo unspecified) | inconclusive: 40.6%
CCCCC(=O)Nc1ccc(C(=O)NNC(=S)NC(=O)c2ccco2)cc1 | inconclusive: 36.3%
COc1cc(C(=O)Nc2ccc3c(c2)OCCO3)c(-n2cnnn2)cc1OC | inconclusive: 43.1%
Clc1cc2nc3ccccn3c2cc1Cl | inactive: -1.52%
CCOC(=O)c1sc(NC(=O)CCCCl)nc1C | inconclusive: 44.4%
COc1cccc(CNC(=O)CSc2nnc3c(n2)[nH]c2ccc(OC)cc23)c1 | inconclusive: 50.9%
C=CCn1c(SCC(=O)c2ccccc2)nnc1-c1cc2ccccc2o1 | inconclusive: 51.8%
O=C(NNC(=O)c1cc2cc3ccccc3nc2s1)c1ccc(F)cc1 | inconclusive: 62.2%
COC(=O)c1cc(OC)c(OC)cc1NC(=O)Cc1cccs1 | inactive: 10.3%

Looked up by structure from above (three):
Structure (SMILES) | inhibition
Fc1c(F)c(C(F)(F)F)c(F)c(F)c1N/N=C\c1cccs1 | inconclusive: 52.7%
O=C(NNC(=O)c1cc2cc3ccccc3nc2s1)c1ccc(F)cc1 | inconclusive: 62.2%
COc1cc(/C=N/O)cc(Br)c1OC | inconclusive: 38.5%
